Assay results taken from the supplement of paper PMC7877785.
± gives the uncertainty stated by the source. The uncertainty is large for many entries.

Assay: self-splicing fitness, log relative to wild type (ln ratio); higher = more splicing; Tetrahymena group I intron in knt gene, E. coli kanamycin selection, DiMSum; sequences stand for … in CUCUCU…GGAGGGAAAAGUUAUCAGGCAUGCACCUGGUAGCUAGUCUUUAAACCAAUAGAUUGCAUCGGUUUAAAAGGCAAGACCGUCAAAUUGCGGGAAAGGGGUCAACAGCCGUUCAGUACCAAGUCUCAGGGGAAACUUUGAGAUGGCCUUGCAAAGGGUAUGGUAAUAAGCUGACGGACAUGGUCCUAACCACGCAGCCAAGUCCUAAGUCAACAGAUCUUCUGUUGAUAUGGAUGCAGUUCACAGACUAAAUGUCGGUCGGGGAAGAUGUAUUCUUCUCAUAAGAUAUAGUCGGACCUCUCCUUAAUGGGAGCUAGCGGAUGAAGUGAUGCAACACUGGAGCCGCUGGGAACUAAUUUGUAUGCGAAAGUAUAUUGAUUAGUUUUGGAGUACUCGUGGUCG
In short: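 The eight P1ex-region nucleotides of an intron in the knt kanamycin-resistance gene on pET-22b(+) were all randomised and the library put into E. coli BL21(DE3). Six replicate transformations were grown overnight at 37°C or 30°C on LB agar with or without 25 μg/mL kanamycin, together with 100 μg/mL carbenicillin, 50 μM IPTG and 0.2% rhamnose. Colonies were pooled and amplicon-sequenced on an Illumina HiSeq 2500. Fitness from DiMSum is the error-weighted combination of wild-type-normalised replicate fold changes, kanamycin over none.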

Sequence | self-splicing fitness (ln) (30 °C) | self-splicing fitness (ln) (37 °C)
UGAGAGCAAUAUUACGAAUC | -3.87 ± 0.74 | -2.67 ± 1.1
CCGAAGCAAUAUUACGAGAC | -5.09 ± 1 | 
GGCUAGCAAUAUUACGCCCC | -2.94 ± 1.1 | -1.74 ± 0.82
CAAGAGCAAUAUUACGGACC | -2.77 ± 0.76 | -3.77 ± 0.6
GUAUAGCAAUAUUACGACUG | -2.88 ± 0.33 | -2.23 ± 0.33
CCGAAGCAAUAUUACGGACA | -4.47 ± 0.51 | 
AAAUAGCAAUAUUACGUUGA | -3.3 ± 0.41 | -0.771 ± 0.16
UGCCAGCAAUAUUACGAGGC | -4.02 ± 0.42 | -1.44 ± 0.18
CUUAAGCAAUAUUACGAACU | -3.96 ± 0.76 | 
UCUGAGCAAUAUUACGAGUU |  | -2.71 ± 0.55
UAAGAGCAAUAUUACGAAAU | -3.88 ± 0.53 | -1.61 ± 0.32
GCUGAGCAAUAUUACGACGA | 1.47 ± 1 | 
UAUGAGCAAUAUUACGAGCC |  | 0.0375 ± 0.59
UUCGAGCAAUAUUACGCAGC | -4.03 ± 0.53 | -3.61 ± 1
CCGGAGCAAUAUUACGGGCC | -3.57 ± 0.74 | 
GUCAAGCAAUAUUACGCAUA | -1.58 ± 0.063 | -0.367 ± 0.06
GCGUAGCAAUAUUACGGGAG | -3.65 ± 0.52 | 
CGAAAGCAAUAUUACGUGGG | -2.3 ± 0.098 | -2.46 ± 0.14
UUUUAGCAAUAUUACGGGUU | -4.73 ± 0.73 | 

A section taken from the entries so far, for reference:
Sequence | self-splicing fitness (ln) (30 °C) | self-splicing fitness (ln) (37 °C)
CAAGAGCAAUAUUACGGACC | -2.77 ± 0.76 | -3.77 ± 0.6
GUAUAGCAAUAUUACGACUG | -2.88 ± 0.33 | -2.23 ± 0.33
CCGAAGCAAUAUUACGGACA | -4.47 ± 0.51 | 
AAAUAGCAAUAUUACGUUGA | -3.3 ± 0.41 | -0.771 ± 0.16

Following part.

Sequence | self-splicing fitness (ln) (30 °C) | self-splicing fitness (ln) (37 °C)
GGCAAGCAAUAUUACGCGCC | -3.95 ± 0.74 | 
UCGGAGCAAUAUUACGGAUC |  | -2.02 ± 0.56
CGGAAGCAAUAUUACGAUAA | -3.42 ± 0.53 | 
GGGUAGCAAUAUUACGCACC |  | -0.681 ± 1.4
ACCGAGCAAUAUUACGUUCU | -2.38 ± 0.074 | -1.01 ± 0.074
GAUAAGCAAUAUUACGGCGC | 0.0448 ± 0.13 | -0.881 ± 0.13
UGUCAGCAAUAUUACGCUGC | -3.54 ± 0.43 | -0.934 ± 0.25
UGGUAGCAAUAUUACGGACC |  | -1.79 ± 1.2
UAUAAGCAAUAUUACGCAAA | -2.79 ± 0.58 | -2.13 ± 0.5
UUUGAGCAAUAUUACGCCAU | -3.71 ± 0.52 | -1.79 ± 1.2
CGUGAGCAAUAUUACGAUGC | -0.111 ± 0.43 | -2 ± 0.48
GCGGAGCAAUAUUACGCACA | -4.04 ± 1.1 | 
CUCGAGCAAUAUUACGCAUA |  | -3.16 ± 0.6
CACUAGCAAUAUUACGUUGA | -3.56 ± 0.2 | -2.24 ± 0.16
GACGAGCAAUAUUACGCCGU |  | -4.66 ± 0.72
UCGAAGCAAUAUUACGAACU | -2.74 ± 0.78 | -2.27 ± 0.64
GUCGAGCAAUAUUACGCCAU | -2.99 ± 0.28 | -2.4 ± 0.24
CGGCAGCAAUAUUACGCCCG |  | -1.4 ± 0.9
CUUUAGCAAUAUUACGGCGC |  | -2.76 ± 0.62

Sequence | self-splicing fitness (ln) (30 °C) | self-splicing fitness (ln) (37 °C)
CCGUAGCAAUAUUACGCCCU | -1.79 ± 0.87 | -2.86 ± 1.1
GGCUAGCAAUAUUACGAGCC | -1.06 ± 0.54 | -0.785 ± 0.93
UACUAGCAAUAUUACGAGCU |  | -2.26 ± 0.54
CGGGAGCAAUAUUACGAAUC | -3.86 ± 0.52 | 
CCGUAGCAAUAUUACGCAUC | -3.6 ± 0.74 | -4.15 ± 0.59
UAGGAGCAAUAUUACGGGUC |  | -3.81 ± 0.51
UGGCAGCAAUAUUACGUCGA | -0.694 ± 0.04 | 0.401 ± 0.058
UUAGAGCAAUAUUACGCCGC | -3.43 ± 1 | -2.79 ± 1.1
CCUCAGCAAUAUUACGGCCC |  | -2.72 ± 1.1
CAAUAGCAAUAUUACGCAGC | -4.47 ± 0.72 | -1.08 ± 0.79
GGAGAGCAAUAUUACGAACG | -3.92 ± 1 | -0.691 ± 0.71
GACGAGCAAUAUUACGAGCC | -2.73 ± 0.33 | -1.8 ± 0.79
UGAUAGCAAUAUUACGCUCC | -2.59 ± 0.64 | 
UGCGAGCAAUAUUACGUUGC | -2.85 ± 0.64 | 
UCACAGCAAUAUUACGGCCG | -1.24 ± 0.1 | -0.536 ± 0.15
AAUGAGCAAUAUUACGUACC | -4.21 ± 0.59 | 
ACACAGCAAUAUUACGUCCA | -1.09 ± 0.089 | -0.474 ± 0.096
AAUGAGCAAUAUUACGAAUG |  | -2.88 ± 0.53
